For 42 sequences, binding signal results are on record in PMC7819943, “Rice protein-binding microarrays: a tool to detect cis-acting elements near promoter regions in rice”.

Some of the results follow.

In the test the target is T1, OsSMF1 (Oryza sativa, UniProt Q6ZLB0 1-436).
T1 sequence: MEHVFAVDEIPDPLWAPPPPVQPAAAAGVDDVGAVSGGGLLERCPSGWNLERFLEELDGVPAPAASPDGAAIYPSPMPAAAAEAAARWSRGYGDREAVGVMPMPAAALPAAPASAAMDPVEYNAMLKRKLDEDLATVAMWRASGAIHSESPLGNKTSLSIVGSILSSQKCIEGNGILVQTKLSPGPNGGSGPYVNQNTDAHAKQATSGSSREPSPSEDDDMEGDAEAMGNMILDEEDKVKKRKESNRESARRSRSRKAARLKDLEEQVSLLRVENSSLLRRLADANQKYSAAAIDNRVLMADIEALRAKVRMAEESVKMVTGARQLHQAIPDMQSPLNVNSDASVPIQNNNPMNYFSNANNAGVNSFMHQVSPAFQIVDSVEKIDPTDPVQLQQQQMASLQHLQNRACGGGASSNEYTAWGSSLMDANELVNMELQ
Put plainly: protein-binding microarray (RPBM); PBS, 2% BSA, 51.3 ng/ul salmon testes DNA, 50 uM zinc acetate, 200 nM TF, 25 C, 1 h; high values mean tight binding. As to conditions: protein: recombinant; tags: N-terminal polyhistidine and DsRed monomer fusion (pET32a); chain copies: 2; label: CyDye5-dUTP incorporated in the synthesized complementary strand; 3' TTTTT single-stranded linker to array surface; dsDNA, one strand shown. The gist of the method:
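Transcription factors were each fused at the N-terminus to a polyhistidine tag plus DsRed and expressed in E. coli BL21-CodonPlus before Ni–NTA purification. Binding to a double-stranded custom Agilent array was carried out with 200 nM protein at 25 °C for 1 h in PBS, 2% BSA, salmon testes DNA and 50 µM zinc acetate. The binding signal is per-feature fluorescence intensity, in arbitrary units, on an Axon 4000B scanner.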
“AGTCGATGACATTTGGGTCGCACCTATAGACACAGCAAGTCGGAGTCACCTAGTGCAG”: the binding signal is 3300 fluorescence intensity (a.u.). The result for “AAAAGAGCCCACATGTCGGTCCTAATCTGACTCAGCTCACCGGAGTCACCTAGTGCAG” reads 7920 fluorescence intensity (a.u.); that for “ATTTAATCTTTATCAGGTTCGAACGGATAGGTCCATGAATCGGAGTCACCTAGTGCAG”, 32800 fluorescence intensity (a.u.); that for “CGGTTCACCTCACCTCACCACCGAACCCCACTCGATGGCACGGAGTCACCTAGTGCAG”, 22600 fluorescence intensity (a.u.). The result for “GGCCGGAGGGCGGCCTCGGTGGCGTGGAGTTGGCAGCGGGCGGAGTCACCTAGTGCAG” reads 3770 fluorescence intensity (a.u.). The result for “ATGTAGTTTACCAGTTACATTGACCTGGACAGTACTCTAACGGAGTCACCTAGTGCAG” reads 4520 fluorescence intensity (a.u.); that for “CACCACGGCCATCTCGTCAGTCAGTGTGACCCATCCGGCCCGGAGTCACCTAGTGCAG”, 4420 fluorescence intensity (a.u.).

With “CATGTTATGGAGCCAAGCCCTCCCCGTGACATGGACACGTCGGAGTCACCTAGTGCAG”, the binding signal is 5350 fluorescence intensity (a.u.). In the case of “GAATGGGAAGAGGGAGATGACACGTGGGGCCCACCATATTCGGAGTCACCTAGTGCAG” it was 4040 fluorescence intensity (a.u.).

As to “TTCAAGTCCACATGGTGCTGACGTGAAACTGTCACATACACGGAGTCACCTAGTGCAG”, the binding signal was 7250 fluorescence intensity (a.u.). In the case of “TCTATGCAGTGTTTACAGCGTCACTTATCTTAATTCTCCCCGGAGTCACCTAGTGCAG” it was 4490 fluorescence intensity (a.u.); in that of “CGAGGACGACGTCGTGGTTGTGGTCGTCATGCTTGGGGACCGGAGTCACCTAGTGCAG”, 7180 fluorescence intensity (a.u.). Take “TCATTCCAGTTACCATGGAGCTGACGCGTGCACACGCACACGGAGTCACCTAGTGCAG”: the binding signal is 8490 fluorescence intensity (a.u.). In the case of “TCGAATTGTGGTGAACATTGCATTAATCCTCAAGAGCCTTCGGAGTCACCTAGTGCAG” it was 17600 fluorescence intensity (a.u.). In the case of “CTGCATTCAGTTTACTCTTCCCTGTCAGCTTCTGAAGACCCGGAGTCACCTAGTGCAG” it was 4470 fluorescence intensity (a.u.); in that of “ATTGTTTGTCGTCTTATAGCATTCAATTCGACAAAGAACCCGGAGTCACCTAGTGCAG”, 24900 fluorescence intensity (a.u.). The result for “GAGGGTCATGTCTTGGTCGCGGGCTGATGACTTGGAGCCCCGGAGTCACCTAGTGCAG” reads 6360 fluorescence intensity (a.u.); that for “AAAAGTCCATCTACTGGTGCCGTCACCATCACAGAATACACGGAGTCACCTAGTGCAG”, 4090 fluorescence intensity (a.u.); that for “TATTACCACGTAGGCGCCACGTGGCGCCACGTCAGCAAAACGGAGTCACCTAGTGCAG”, 42100 fluorescence intensity (a.u.). Turning to “ATTACTACTATTCAGTACATTTCGTAATTTACAGCTCATCCGGAGTCACCTAGTGCAG”, the binding signal is 4510 fluorescence intensity (a.u.).

In the case of “CTCGTCGATGTAGCGCTCCTCCCGTTCCTGGTCTCCAACGCGGAGTCACCTAGTGCAG”, the binding signal is 3180 fluorescence intensity (a.u.). The result for “CAGTTTCGTCTCGCCGGCGTTGTATTTCCACATCAACGTGCGGAGTCACCTAGTGCAG” reads 3470 fluorescence intensity (a.u.); that for “TCACGGCCGCTGAAGCCTCTGACACTCCACTGTAGTGTGTCGGAGTCACCTAGTGCAG”, 3710 fluorescence intensity (a.u.); that for “GCCACGATGAAGAGAGTCCCAAATCAAATTCTCAACTCTACGGAGTCACCTAGTGCAG”, 32100 fluorescence intensity (a.u.). In the case of “CAAAACGTCAAAAGCAGAAATGAATGGAGTGATCGAGTAGCGGAGTCACCTAGTGCAG”, the binding signal is 3440 fluorescence intensity (a.u.). The result for “TGCATATACCCCTTCTCCAGGCATAAGTATTGATCCTTCTCGGAGTCACCTAGTGCAG” reads 3300 fluorescence intensity (a.u.); that for “CGCGTACATCCAACTGAGTTTTCTGCGATGGACGGTGACACGGAGTCACCTAGTGCAG”, 3920 fluorescence intensity (a.u.).

As for “ACGAAACGCAGCAAGTGTCAACTGACTAGTACTTTGAACACGGAGTCACCTAGTGCAG”, the binding signal is 3810 fluorescence intensity (a.u.). In the case of “AACTATAACTCCAAAATCTTGTATGATATTATTATATATGCGGAGTCACCTAGTGCAG”, the binding signal is 3320 fluorescence intensity (a.u.).

In the case of “CAACTCGCTCCCGGGTTTTGAAACCGCGGGACCGTCGTGGCGGAGTCACCTAGTGCAG”, the binding signal was 3780 fluorescence intensity (a.u.). In the case of “TCGATCCGCGCTTTTGTCCACGTCACCAATCCGTGGCAACCGGAGTCACCTAGTGCAG” it was 33100 fluorescence intensity (a.u.).

In the case of “TATGTTTCTAACCTTGCTTTATCTGTCCTATGGGCCCAGTCGGAGTCACCTAGTGCAG”, the binding signal is 3140 fluorescence intensity (a.u.).

Consider “GCAGCTGGTGGCGCAACGCCACGAGGCGCACCCCGCTGGCCGGAGTCACCTAGTGCAG”, for which the binding signal is 3400 fluorescence intensity (a.u.). Turning to “GAGGAAATCTTCTTAAGAACTGTGAAATACAACTACATGACGGAGTCACCTAGTGCAG”, the binding signal is 22500 fluorescence intensity (a.u.).

For “GTCTGAACTGAAGCAACTATCAAAAGGCAATTAGTAGACGCGGAGTCACCTAGTGCAG”, the binding signal is 20400 fluorescence intensity (a.u.). In the case of “ATTAGACAAGTGACGTGTGGACCCCAGGTCTATATGTCAGCGGAGTCACCTAGTGCAG” it was 10200 fluorescence intensity (a.u.); in that of “CTCCAGCAGCTGCTCGCTCGTCATCACCGCGATGCTGCCGCGGAGTCACCTAGTGCAG”, 3490 fluorescence intensity (a.u.). In the case of “ACGATAGTAGAGTCACTGTAGTGTGTAGATTGCATGGTAGCGGAGTCACCTAGTGCAG” it was 3560 fluorescence intensity (a.u.). In the case of “TCTCCTTCCACTGCCACCGCACAAGCAAGGGCAAAGCTTACGGAGTCACCTAGTGCAG” it was 3780 fluorescence intensity (a.u.); in that of “GGCGAGGGCGAACGCCATGACGAGGCAGGGGATGCCGAAGCGGAGTCACCTAGTGCAG”, 3750 fluorescence intensity (a.u.). For the sequence “AATGCAAGTCAATTCCAAATCCAACCAAAATTCCGCCGAACGGAGTCACCTAGTGCAG”, the binding signal is 22000 fluorescence intensity (a.u.). In the case of “GTCCACGCGGCGCGCCGCGGTTGACCCGCGTTGCCTCTCGCGGAGTCACCTAGTGCAG” it was 3280 fluorescence intensity (a.u.).
